Test results taken from article PMC12376620.
For at least one entry, the source does not settle the construct or the ends of the probe. For some of these results: A weaker result is weaker than the reference pair of the same experiment. At least one verdict rests on a figure or table, not on a statement of the authors.

By UniProt entry, the sequences of proteins in these tests, tags left out. Where a name states a change or a piece, a line headed by the entry shows the natural chain unless it says otherwise.
UniProt Q5K4R0: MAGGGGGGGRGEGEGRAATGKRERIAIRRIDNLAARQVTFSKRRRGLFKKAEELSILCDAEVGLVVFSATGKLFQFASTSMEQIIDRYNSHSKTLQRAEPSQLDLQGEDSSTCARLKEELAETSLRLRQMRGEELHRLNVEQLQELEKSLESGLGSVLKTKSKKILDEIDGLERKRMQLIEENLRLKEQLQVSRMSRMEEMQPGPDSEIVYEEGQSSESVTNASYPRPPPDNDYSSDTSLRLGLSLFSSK

target: MBP-OsMADS47 (UniProt Q5K4R0); experiment: EMSA; conditions: EMSA buffer not stated (performed as described previously, ref 61); unlabeled competitors at 10x, 100x, 1000x; recombinant protein; protein details: MBP (N-terminal, pMAL); label: biotin 3'-end

Binding result, binds more weakly:
CCACCGTCCCCCCTTCCCCCTCCAGAGGCAGGGAGGGAGGGAGGGGAG (double strand) [GS3-P4 mutated probe]
CTACTTTCCTTCCTCCACTAGAACCCTTCTCACTCTACATAATC (double strand) [GW8-P3 mutated probe]
CTCTCCCTTCCATCATTACTTGCAATCCCCTCCCCTCCATCTCCATGTG (double strand) [GS3-P2 mutated probe]
CTTATAGTCCAACAATTTGAGAGTCAAAAATTAAATGAAAAATAGAAATTC (double strand) [GW8-P1 mutated probe]
CTTCCCTACACGACCCTCTTCATGACCAGCTCATTCCGAACCCCCTTCC (double strand) [GS3-P5 mutated probe]
GCCACCCTCCCTACGACGTAGCGGAGAGGTCCGCGCCGCCGCCGCTGC (double strand) [GS3-P3 mutated probe]
GCTGCACCACCCGCGATGCCGTCGGAGGTGGAGCGTCGCCGCCCTCC (double strand) [GS3-P1 mutated probe]
GTAACTGACTACCCCCAGTTCCTCCTTGGTATTGTTGCTCCAAG (double strand) [GW8-P2 mutated probe]

target: phosphorylated MBP-OsMADS47 (UniProt Q5K4R0); experiment: EMSA; conditions: phosphorylated by OsMPK6, stronger than unphosphorylated; EMSA buffer not stated (performed as described previously, ref 61); unlabeled competitors at 10x, 100x, 1000x; recombinant protein; protein details: MBP (N-terminal, pMAL); label: biotin 3'-end

Binding result, binds:
CCACCGTCCCCCCTTCCCCCTCCAACCAGATCTGGGAGGAAGGGAGGGAGGGAGGGGAG (double strand) [GS3-P4]
CTACTTTCCTTATTCCACTAGAAATCATATATACCTTTCTCACTCTACATAATC (double strand) [GW8-P3]
CTCTCCCTTCCATCATTACTTGCCCAAAAACGGCAATCCCCTCCCCTCCATCTCCATGTG (double strand) [GS3-P2]
CTTATAGTCCAACAATTTGAGAGCAATTAATGGTCAAAAATTAAATGAAAAATAGAAATTC (double strand) [GW8-P1]
CTTTTCTAAACGATATTCTTCATGAACCAAAGGAGGGAAGCTCATTCCGAAAATTTTTCC (double strand) [GS3-P5]
GCCACCCTCCCTACGACGTAGCCAGATATGGGTGGAGAGGTAAGCGCCGCCGCCGCTGC (double strand) [GS3-P3]
GCTGCACAACCCGCGATGCCGTCGGCCGGATTTGGGAGGTGGAGCGTCGCCGCCCTCC (double strand) [GS3-P1]
GTAACTGACTACCCCCAGTTCCTGCCCTCTTGGGCCTTGGTATTGTTGCTCCAAG (double strand) [GW8-P2]
